Patent publication US20140113288A1 (ACADEMIA SINICA, published 2014)

Target: T1, HtrA4mt-FLAG (human, UniProt P83105 32-476, limits assumed)
T1 construct: Used instead of wild-type HtrA4-FLAG in pull-downs to prevent cleavage of the GST fusion proteins; also called protease-dead HtrA4 mutant; not shown: C-terminal FLAG tag
T1 sequence (looked up): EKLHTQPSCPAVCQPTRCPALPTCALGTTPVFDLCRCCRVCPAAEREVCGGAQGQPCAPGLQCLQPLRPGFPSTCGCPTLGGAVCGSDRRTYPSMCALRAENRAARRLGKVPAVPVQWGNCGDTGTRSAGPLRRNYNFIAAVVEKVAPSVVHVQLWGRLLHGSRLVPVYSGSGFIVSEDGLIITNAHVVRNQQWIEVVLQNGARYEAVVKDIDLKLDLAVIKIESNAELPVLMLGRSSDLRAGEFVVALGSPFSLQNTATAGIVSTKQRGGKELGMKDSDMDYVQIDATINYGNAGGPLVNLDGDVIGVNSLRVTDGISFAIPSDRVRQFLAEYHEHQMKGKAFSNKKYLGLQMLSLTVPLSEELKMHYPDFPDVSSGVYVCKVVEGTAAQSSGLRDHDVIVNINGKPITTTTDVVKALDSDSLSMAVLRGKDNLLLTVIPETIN
Experiment: GST pull-down, immunoblot with FLAG mAb
Experimental: The GST fusion proteins GST-SU and GST-TM, which contain the SU and the TM subunits of syncytin-1, respectively, were prepared in E. coli using the pGEX6P-1 vector (GE Healthcare, Piscataway, N.J.). Recombinant HtrA4-FLAG and HtrA4mt-FLAG proteins were prepared in a vaccinia virus expression system. […] Cleavage of ECM protein by HtrA4 was performed by incubation of fibronectin (Calbiochem, La Jolla, Calif.) and HtrA4-FLAG or HtrA4mt-FLAG at 37° C. for 16 h, followed by immunoblotting with fibronectin Ab (Sigma). Pull-down experiments were performed by incubation of GST-SU- or GST-TM-preloaded glutathione agarose beads with HtrA4mt-FLAG to identify the interaction domain in syncytin-1 for HtrA4. Likewise, GST-SU-preloaded glutathione agarose beads were incubated with HtrA4mt-FLAG or HtrA4mt[…]PDZ-FLAG to identify the interaction domain in HtrA4 for syncytin-1. HtrA4mt-FLAG, instead of wild-type HtrA4-FLAG, was used in the pull-down experiments to prevent cleavage of the GST fusion proteins.

B1: GST-TM (other, human, UniProt Q9UQF0 318-538, looked up)
chain: VPILPFVIGAGVLGALGTGIGGITTSTQFYYKLSQELNGDMERVADSLVTLQDQLNSLAAVVLQNRRALDLLTAERGGTCLFLGEECCYYVNQSGIVTEKVKEIRDRIQRRAEELRNTGPWGLLSQWMPWILPFLGPLAAIILLLLFGPCIFNLLVNFVSSRIEAVKLQMEPKMQSKTKIYRRPLDRPASPRSDVNDIKGTPPEEISAAQPLLRPNSAGSS
notes: domain: TM subunit; Made in E. coli, loaded on glutathione agarose beads as bait; also called GST fusion protein harboring the TM subunit of syncytin-1; not shown: glutathione S-transferase (GST) of the pGEX6P-1 vector; linker not described
B1: no binding.
